No constants are given. Whether binding was seen depends on the method and setting. Binding seen in cells or lysates may run through a third protein. These calls come from enrichment with a bait or labelling near it, and not all partners need be listed.
Target: T1, Parkin (mouse brain) (mouse (endogenous in brain)) (UniProt Q9WVS6)
T1 sequence: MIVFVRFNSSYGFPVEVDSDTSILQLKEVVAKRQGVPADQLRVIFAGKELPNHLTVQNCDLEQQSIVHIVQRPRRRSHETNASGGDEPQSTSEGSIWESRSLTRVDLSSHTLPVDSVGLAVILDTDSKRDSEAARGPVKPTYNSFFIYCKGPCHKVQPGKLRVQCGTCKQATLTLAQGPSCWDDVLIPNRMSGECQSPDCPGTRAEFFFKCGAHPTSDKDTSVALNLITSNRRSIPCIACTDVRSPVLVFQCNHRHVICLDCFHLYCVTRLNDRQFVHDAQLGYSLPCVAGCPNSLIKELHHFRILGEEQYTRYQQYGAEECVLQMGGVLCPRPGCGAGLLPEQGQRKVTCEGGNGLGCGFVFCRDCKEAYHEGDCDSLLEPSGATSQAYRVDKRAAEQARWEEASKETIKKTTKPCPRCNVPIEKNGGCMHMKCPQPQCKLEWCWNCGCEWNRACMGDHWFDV
Assay: affinity purification with mass spectrometry; Parkin immunoprecipitated from substantia nigra of mouse brain, gel bands, LC-MS/MS

By UniProt entry, the sequences of proteins in these tests, tags left out. Where a name states a change or a piece, a line headed by the entry shows the natural chain unless it says otherwise. Residues count along the entry.
UniProt Q60932: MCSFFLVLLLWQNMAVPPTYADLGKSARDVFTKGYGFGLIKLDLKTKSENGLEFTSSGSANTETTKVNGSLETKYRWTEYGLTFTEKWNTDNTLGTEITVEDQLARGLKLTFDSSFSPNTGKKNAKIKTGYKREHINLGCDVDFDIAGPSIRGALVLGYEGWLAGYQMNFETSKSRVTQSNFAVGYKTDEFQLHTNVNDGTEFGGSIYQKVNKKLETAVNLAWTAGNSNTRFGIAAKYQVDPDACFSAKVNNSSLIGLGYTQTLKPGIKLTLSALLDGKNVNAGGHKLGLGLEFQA
UniProt P11881: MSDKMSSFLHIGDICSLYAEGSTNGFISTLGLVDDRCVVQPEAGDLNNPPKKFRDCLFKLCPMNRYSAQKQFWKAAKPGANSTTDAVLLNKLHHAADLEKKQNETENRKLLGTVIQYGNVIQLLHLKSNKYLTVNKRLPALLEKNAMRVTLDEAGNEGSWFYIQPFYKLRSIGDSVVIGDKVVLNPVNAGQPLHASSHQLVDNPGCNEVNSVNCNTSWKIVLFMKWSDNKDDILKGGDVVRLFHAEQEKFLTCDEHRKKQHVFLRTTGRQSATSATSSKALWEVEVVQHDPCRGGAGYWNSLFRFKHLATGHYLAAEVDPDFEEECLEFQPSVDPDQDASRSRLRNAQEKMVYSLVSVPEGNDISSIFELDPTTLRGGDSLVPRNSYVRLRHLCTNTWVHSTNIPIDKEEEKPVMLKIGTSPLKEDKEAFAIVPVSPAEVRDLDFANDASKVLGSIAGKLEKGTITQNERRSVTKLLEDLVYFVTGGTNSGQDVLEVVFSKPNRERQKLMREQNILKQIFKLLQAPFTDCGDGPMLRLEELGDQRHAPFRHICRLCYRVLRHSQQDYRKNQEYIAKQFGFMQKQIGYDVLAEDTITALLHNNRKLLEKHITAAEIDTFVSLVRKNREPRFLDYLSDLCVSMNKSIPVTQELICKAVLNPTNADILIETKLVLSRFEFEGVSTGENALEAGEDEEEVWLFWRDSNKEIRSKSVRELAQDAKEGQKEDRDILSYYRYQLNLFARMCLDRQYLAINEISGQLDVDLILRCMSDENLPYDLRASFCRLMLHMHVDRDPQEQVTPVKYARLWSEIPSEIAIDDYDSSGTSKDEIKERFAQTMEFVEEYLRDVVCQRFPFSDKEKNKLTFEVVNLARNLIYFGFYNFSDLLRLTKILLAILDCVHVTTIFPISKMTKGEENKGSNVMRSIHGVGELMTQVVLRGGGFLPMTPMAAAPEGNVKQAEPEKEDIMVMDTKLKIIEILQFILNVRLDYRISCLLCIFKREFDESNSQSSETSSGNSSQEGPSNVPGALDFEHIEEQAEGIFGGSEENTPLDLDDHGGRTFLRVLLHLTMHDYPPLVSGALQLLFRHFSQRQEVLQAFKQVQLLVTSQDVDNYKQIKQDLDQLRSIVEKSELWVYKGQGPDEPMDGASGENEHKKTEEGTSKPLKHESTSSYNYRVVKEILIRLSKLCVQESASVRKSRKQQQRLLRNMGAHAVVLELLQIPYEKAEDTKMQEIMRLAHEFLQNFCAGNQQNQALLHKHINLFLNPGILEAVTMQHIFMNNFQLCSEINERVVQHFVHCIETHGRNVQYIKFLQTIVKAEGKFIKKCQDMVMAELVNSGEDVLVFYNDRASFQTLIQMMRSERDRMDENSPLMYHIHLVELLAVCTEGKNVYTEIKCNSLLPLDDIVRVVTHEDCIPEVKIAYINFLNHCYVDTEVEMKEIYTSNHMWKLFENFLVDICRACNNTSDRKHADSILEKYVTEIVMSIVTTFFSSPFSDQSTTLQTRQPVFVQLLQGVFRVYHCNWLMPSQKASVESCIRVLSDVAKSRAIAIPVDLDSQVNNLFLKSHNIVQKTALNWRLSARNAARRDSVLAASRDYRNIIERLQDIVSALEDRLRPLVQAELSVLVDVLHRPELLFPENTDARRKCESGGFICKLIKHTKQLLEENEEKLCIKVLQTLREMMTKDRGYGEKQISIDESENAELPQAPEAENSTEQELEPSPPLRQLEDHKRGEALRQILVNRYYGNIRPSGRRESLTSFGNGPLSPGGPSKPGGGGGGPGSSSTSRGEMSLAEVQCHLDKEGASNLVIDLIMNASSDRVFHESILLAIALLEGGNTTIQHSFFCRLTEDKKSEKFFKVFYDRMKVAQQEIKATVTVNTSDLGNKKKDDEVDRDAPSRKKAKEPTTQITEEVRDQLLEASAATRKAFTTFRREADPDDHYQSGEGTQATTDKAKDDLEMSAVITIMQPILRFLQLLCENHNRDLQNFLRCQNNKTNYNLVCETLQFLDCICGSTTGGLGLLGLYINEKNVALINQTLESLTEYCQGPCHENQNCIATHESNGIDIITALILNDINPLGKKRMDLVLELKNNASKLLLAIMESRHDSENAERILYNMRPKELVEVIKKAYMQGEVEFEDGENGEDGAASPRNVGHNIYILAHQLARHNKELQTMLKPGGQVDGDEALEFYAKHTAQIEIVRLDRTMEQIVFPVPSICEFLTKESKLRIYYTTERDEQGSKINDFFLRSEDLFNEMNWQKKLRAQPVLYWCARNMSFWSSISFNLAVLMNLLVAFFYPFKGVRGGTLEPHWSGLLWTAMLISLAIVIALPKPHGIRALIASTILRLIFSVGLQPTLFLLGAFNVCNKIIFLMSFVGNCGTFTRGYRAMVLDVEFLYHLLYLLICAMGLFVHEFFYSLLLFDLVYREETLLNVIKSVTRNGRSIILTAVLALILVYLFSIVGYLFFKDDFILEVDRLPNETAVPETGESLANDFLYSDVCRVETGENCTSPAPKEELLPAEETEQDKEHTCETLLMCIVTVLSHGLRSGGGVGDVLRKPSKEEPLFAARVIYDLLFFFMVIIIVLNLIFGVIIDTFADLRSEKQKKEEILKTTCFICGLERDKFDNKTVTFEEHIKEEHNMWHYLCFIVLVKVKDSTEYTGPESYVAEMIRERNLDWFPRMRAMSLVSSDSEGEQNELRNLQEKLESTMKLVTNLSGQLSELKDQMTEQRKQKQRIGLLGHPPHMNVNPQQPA
UniProt P38647, residues 47-679: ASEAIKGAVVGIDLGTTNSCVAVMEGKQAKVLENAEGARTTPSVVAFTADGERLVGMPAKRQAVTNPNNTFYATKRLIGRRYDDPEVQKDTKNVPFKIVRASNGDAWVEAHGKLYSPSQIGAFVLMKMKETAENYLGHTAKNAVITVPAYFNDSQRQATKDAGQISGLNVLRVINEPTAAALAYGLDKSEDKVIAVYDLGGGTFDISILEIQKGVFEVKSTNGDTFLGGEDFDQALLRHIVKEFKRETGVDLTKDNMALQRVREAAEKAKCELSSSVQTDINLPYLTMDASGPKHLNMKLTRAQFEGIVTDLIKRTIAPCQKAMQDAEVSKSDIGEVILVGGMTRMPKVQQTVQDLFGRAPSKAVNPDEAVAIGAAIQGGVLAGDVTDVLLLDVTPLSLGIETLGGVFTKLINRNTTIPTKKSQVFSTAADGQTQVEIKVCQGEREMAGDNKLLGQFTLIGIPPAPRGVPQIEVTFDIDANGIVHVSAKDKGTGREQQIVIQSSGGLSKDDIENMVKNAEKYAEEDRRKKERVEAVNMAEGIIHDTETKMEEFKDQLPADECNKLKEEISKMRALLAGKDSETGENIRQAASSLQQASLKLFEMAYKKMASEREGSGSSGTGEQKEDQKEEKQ

Row | binding | Substance
1 | binds | VDAC1, mouse brain (from UniProt Q60932)
2 | binds | inositol-1,4,5-triphosphate receptor (IP3R), mouse brain (from UniProt P11881 1-2749)
3 | binds | Grp75, mouse brain (from UniProt P38647 47-679)
